Experimental data as given in US20250304673A1 (CATALYM, published 2025).
Results are given in words; binding and its absence hold for the method and conditions named. Binding can be weak; no strength is given.

Tests used:
mouse GDF-15 (mouse) = assay: SPR
rat GDF-15 (rat) = assay: SPR

B1: CTL-002 (antibody, human IgG4 S228P, kappa, V domains shown)
VH: QITLKESGPTLVKPTQTLTLTCTFSGFSLSTSGMGVSWIRQPPGKGLEWLAHIYWDDDKRYNPTLKSRLTITKDPSKNQVVLTMTNMDPVDTATYYCARSSYGAMDYWGQGTLVTVSS
VL: DIVLTQSPSFLSASVGDRVTITCKASQNVGTNVAWFQQKPGKSPKALIYSASYRYSGVPDRFTGSGSGTEFTLTISSLQPEDFAAYFCQQYNNFPYTFGGGTKLEIKR
notes: Humanized, hinge-stabilized IgG4 (IgG4 S228P) derived from mouse antibody B1-23; captured by anti-human IgG Fc on the chip in the SPR assay; also called visugromab; CTL-001 IgG4*
Mouse GDF-15 (mouse)
  binding: binds
Rat GDF-15 (rat)
  binding: binds
